# Measured values as given in the supplement of paper PMC8728848.
# The other results are listed elsewhere or left out.
# B1: Wzz (Escherichia coli) (protein)
# chain: MRTWKFPSVRVMMRVENNNVSGQNHDPEQIDLIDLLVQLWRGKMTIIISVIVAIVLAIGYLAVAKEKWTSTAIITQPDVGQIAGYNNAMNVIYGQAAPKVSDLQETLIGRFSSAFSALAETLDNQEEPEKLTIEPSVKNQQLPLTVSYVGQTAEGAQMKLAQYIQQVDDKVNQELEKDLKDNIALGRKNLQDSLRTQEVVAQEQKDLRIRQIQEALQYANQAQVTKPQIQQTGEDITQDTLFLLGSEALESMIKHEATRPLVFSSNYYQTRQNLLDIDNLDVDKLDIHAYLYVMKPTLPIRRDSPKKAITLILAVLLGGMVGAGIVLGRNALRNYNAK
# Columns and labels:
# Assay in all cases: glycan array binding signal (z-score within array); higher = stronger binding
# Conditions in all cases: glycan notation: IUPAC condensed, linker removed
# [1] = target: Neu5Ac(a2-3)Gal(b1-4)GlcNAc(b1-6)GalNAc
# Procedure, shortened: (§1)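 From the Consortium for Functional Glycomics database, 3228 arrays were curated, keeping only those whose protein sequence was available. Binding is given as a within-array Z-score averaged across arrays sharing a protein sequence and across linkers. Negative Z-scores can be read as non-binding.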
# [2] = target: Neu5Ac(a2-3)Gal(b1-4)GlcNAc(b1-6)[Gal(b1-3)]GalNAc
# Procedure, shortened: as §1
# [3] = target: Neu5Ac(a2-3)Gal(b1-4)GlcNAc(b1-6)[Neu5Ac(a2-3)Gal(b1-3)]GalNAc
# Procedure, shortened: as §1
# [4] = target: Neu5Ac(a2-3)Gal(b1-4)GlcNAc6S
# Procedure, shortened: as §1
# [5] = target: Neu5Ac(a2-3)Gal(b1-4)[Fuc(a1-3)]GlcNAc
# Procedure, shortened: as §1
# [6] = target: Neu5Ac(a2-3)Gal(b1-4)[Fuc(a1-3)]GlcNAc(b1-2)Man
# Procedure, shortened: as §1
# [7] = target: Neu5Ac(a2-3)Gal(b1-4)[Fuc(a1-3)]GlcNAc(b1-3)Gal
# Procedure, shortened: as §1
# [8] = target: Neu5Ac(a2-3)Gal(b1-4)[Fuc(a1-3)]GlcNAc(b1-3)Gal(b1-4)GlcNAc
# Procedure, shortened: as §1
# [9] = target: Neu5Ac(a2-3)Gal(b1-4)[Fuc(a1-3)]GlcNAc(b1-3)Gal(b1-4)[Fuc(a1-3)]GlcNAc(b1-3)Gal(b1-4)[Fuc(a1-3)]GlcNAc
# Procedure, shortened: as §1
# [10] = target: Neu5Ac(a2-3)Gal(b1-4)[Fuc(a1-3)]GlcNAc(b1-3)GalNAc
# Procedure, shortened: as §1
# [11] = target: Neu5Ac(a2-3)Gal(b1-4)[Fuc(a1-3)]GlcNAc(b1-6)[Gal(b1-3)]GalNAc
# Procedure, shortened: as §1
# [12] = target: Neu5Ac(a2-3)Gal(b1-4)[Fuc(a1-3)]GlcNAc(b1-6)[Neu5Ac(a2-3)Gal(b1-3)]GalNAc
# Procedure, shortened: as §1
# [13] = target: Neu5Ac(a2-3)Gal(b1-4)[Fuc(a1-3)]GlcNAc6S
# Procedure, shortened: as §1
# [14] = target: Neu5Ac(a2-3)Gal6S(b1-4)GlcNAc
# Procedure, shortened: as §1
# [15] = target: Neu5Ac(a2-3)Gal6S(b1-4)[Fuc(a1-3)]GlcNAc
# Procedure, shortened: as §1
# Neu5Ac(a2-3)GalNAc = target: Neu5Ac(a2-3)GalNAc
# Procedure, shortened: as §1
# [16] = target: Neu5Ac(a2-3)GalNAc(b1-4)GlcNAc
# Procedure, shortened: as §1
# [17] = target: Neu5Ac(a2-3)[GalNAc(b1-4)]Gal(b1-4)Glc
# Procedure, shortened: as §1
# [18] = target: Neu5Ac(a2-3)[GalNAc(b1-4)]Gal(b1-4)GlcNAc
# Procedure, shortened: as §1
# [19] = target: Neu5Ac(a2-3)[GalNAc(b1-4)]Gal(b1-4)GlcNAc(b1-3)GalNAc
# Procedure, shortened: as §1
# [20] = target: Neu5Ac(a2-3)[Neu5Ac(a2-6)]GalNAc
# Procedure, shortened: as §1
# Neu5Ac(a2-6)Gal = target: Neu5Ac(a2-6)Gal
# Procedure, shortened: as §1
# [21] = target: Neu5Ac(a2-6)Gal(b1-3)GlcNAc(b1-3)[Gal(b1-4)GlcNAc(b1-6)]Gal(b1-4)Glc
# Procedure, shortened: as §1
# Neu5Ac(a2-6)Gal(b1-4)Glc = target: Neu5Ac(a2-6)Gal(b1-4)Glc
# Procedure, shortened: as §1
# [22] = target: Neu5Ac(a2-6)Gal(b1-4)GlcNAc
# Procedure, shortened: as §1
# [23] = target: Neu5Ac(a2-6)Gal(b1-4)GlcNAc(b1-2)Man
# Procedure, shortened: as §1
# [24] = target: Neu5Ac(a2-6)Gal(b1-4)GlcNAc(b1-2)Man(a1-3)Man(b1-4)GlcNAc(b1-4)GlcNAc
# Procedure, shortened: as §1
# [25] = target: Neu5Ac(a2-6)Gal(b1-4)GlcNAc(b1-2)Man(a1-3)[Gal(b1-4)GlcNAc(b1-2)Man(a1-6)]Man(b1-4)GlcNAc(b1-4)GlcNAc
# Procedure, shortened: as §1
# [26] = target: Neu5Ac(a2-6)Gal(b1-4)GlcNAc(b1-2)Man(a1-3)[GlcNAc(b1-2)Man(a1-6)]Man(b1-4)GlcNAc(b1-4)GlcNAc
# Procedure, shortened: as §1
# [27] = target: Neu5Ac(a2-6)Gal(b1-4)GlcNAc(b1-2)Man(a1-3)[GlcNAc(b1-4)][Neu5Ac(a2-6)Gal(b1-4)GlcNAc(b1-2)Man(a1-6)]Man(b1-4)GlcNAc(b1-4)GlcNAc
# Procedure, shortened: as §1
# [28] = target: Neu5Ac(a2-6)Gal(b1-4)GlcNAc(b1-2)Man(a1-3)[Man(a1-6)]Man(b1-4)GlcNAc(b1-4)GlcNAc
# Procedure, shortened: as §1
binder,measurement,setting,value
B1,glycan array binding signal (z-score),[1],-0.567
same,glycan array binding signal (z-score),[2],-0.035
same,glycan array binding signal (z-score),[3],-0.06
same,glycan array binding signal (z-score),[4],0.276
same,glycan array binding signal (z-score),[5],-0.934
same,glycan array binding signal (z-score),[6],-0.242
same,glycan array binding signal (z-score),[7],-0.557
same,glycan array binding signal (z-score),[8],0.481
same,glycan array binding signal (z-score),[9],-1.71
same,glycan array binding signal (z-score),[10],1.42
same,glycan array binding signal (z-score),[11],0.404
same,glycan array binding signal (z-score),[12],0.143
same,glycan array binding signal (z-score),[13],-0.072
same,glycan array binding signal (z-score),[14],0.27
same,glycan array binding signal (z-score),[15],-1.16
same,glycan array binding signal (z-score),Neu5Ac(a2-3)GalNAc,-0.218
same,glycan array binding signal (z-score),[16],-0.034
same,glycan array binding signal (z-score),[17],-0.397
same,glycan array binding signal (z-score),[18],-0.758
same,glycan array binding signal (z-score),[19],0.039
same,glycan array binding signal (z-score),[20],-0.303
same,glycan array binding signal (z-score),Neu5Ac(a2-6)Gal,0.542
same,glycan array binding signal (z-score),[21],-1.02
same,glycan array binding signal (z-score),Neu5Ac(a2-6)Gal(b1-4)Glc,0.167
same,glycan array binding signal (z-score),[22],-0.535
same,glycan array binding signal (z-score),[23],-0.299
same,glycan array binding signal (z-score),[24],0.55
same,glycan array binding signal (z-score),[25],0.344
same,glycan array binding signal (z-score),[26],1.21
same,glycan array binding signal (z-score),[27],0.617
same,glycan array binding signal (z-score),[28],0.686

# Reformatted tab-delimited: part of the list above.
binder	measurement	setting	value
B1	glycan array binding signal (z-score)	[9]	-1.71
same	glycan array binding signal (z-score)	Neu5Ac(a2-6)Gal	0.542
